Assay results: paper PMC9818470
No constants are given. Whether binding was seen depends on the method and setting. In cells and extracts the contact can be indirect. Some results given as binding are weak or reduced against the parent protein; the word gives no strength.

By UniProt entry, the sequences of proteins in these tests, tags left out. Where a name states a change or a piece, a line headed by the entry shows the natural chain unless it says otherwise. Chains listed by the source or under a name are the forms on record and can include a tag or linker.
UniProt Q8N163: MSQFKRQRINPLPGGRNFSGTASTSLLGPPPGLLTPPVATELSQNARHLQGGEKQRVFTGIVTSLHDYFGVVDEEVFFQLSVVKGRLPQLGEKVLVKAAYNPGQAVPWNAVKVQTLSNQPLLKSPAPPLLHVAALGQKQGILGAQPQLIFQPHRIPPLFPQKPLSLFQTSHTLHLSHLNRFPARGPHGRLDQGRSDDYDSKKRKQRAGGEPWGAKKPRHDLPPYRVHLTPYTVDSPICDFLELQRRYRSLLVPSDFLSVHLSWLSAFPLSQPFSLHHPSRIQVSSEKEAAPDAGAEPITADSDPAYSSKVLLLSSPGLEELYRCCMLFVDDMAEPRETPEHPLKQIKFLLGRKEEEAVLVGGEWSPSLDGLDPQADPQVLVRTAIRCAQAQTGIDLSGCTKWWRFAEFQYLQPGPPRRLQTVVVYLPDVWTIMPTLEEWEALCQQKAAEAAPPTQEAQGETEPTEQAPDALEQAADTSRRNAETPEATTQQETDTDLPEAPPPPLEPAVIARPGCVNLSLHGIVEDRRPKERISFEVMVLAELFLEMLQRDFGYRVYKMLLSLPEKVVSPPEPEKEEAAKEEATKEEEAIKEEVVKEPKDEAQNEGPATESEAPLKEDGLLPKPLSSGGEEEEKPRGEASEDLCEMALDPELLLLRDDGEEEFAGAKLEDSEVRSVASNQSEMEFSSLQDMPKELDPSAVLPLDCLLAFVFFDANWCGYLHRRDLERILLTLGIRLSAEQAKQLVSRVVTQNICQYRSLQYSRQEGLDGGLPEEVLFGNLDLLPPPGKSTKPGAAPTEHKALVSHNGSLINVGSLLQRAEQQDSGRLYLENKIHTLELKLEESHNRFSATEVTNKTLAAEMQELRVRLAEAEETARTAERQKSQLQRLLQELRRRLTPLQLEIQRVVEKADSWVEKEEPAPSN
DBC1 ΔNudix (Q8N163, form named): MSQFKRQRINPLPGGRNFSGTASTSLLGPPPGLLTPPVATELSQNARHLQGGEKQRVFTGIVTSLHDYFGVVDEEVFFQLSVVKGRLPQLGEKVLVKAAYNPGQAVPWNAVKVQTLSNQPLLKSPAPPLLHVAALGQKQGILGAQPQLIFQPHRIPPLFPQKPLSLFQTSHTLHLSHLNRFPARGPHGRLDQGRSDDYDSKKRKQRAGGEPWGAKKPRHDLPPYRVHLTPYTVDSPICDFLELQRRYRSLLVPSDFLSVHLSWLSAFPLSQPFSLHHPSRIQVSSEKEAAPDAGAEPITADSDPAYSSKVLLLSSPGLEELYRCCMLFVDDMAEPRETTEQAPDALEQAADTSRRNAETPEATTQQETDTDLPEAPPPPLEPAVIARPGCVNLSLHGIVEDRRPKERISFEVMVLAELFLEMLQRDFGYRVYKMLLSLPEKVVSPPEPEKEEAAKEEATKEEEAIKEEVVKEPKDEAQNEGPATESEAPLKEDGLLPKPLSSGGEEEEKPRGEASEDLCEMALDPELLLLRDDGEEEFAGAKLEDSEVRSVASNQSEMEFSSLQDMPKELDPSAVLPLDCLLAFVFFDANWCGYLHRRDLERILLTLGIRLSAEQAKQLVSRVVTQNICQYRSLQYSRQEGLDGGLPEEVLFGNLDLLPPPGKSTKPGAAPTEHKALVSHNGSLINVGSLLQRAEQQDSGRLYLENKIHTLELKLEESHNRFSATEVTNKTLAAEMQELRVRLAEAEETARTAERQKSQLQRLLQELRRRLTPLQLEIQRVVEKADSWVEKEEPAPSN
UniProt P54132: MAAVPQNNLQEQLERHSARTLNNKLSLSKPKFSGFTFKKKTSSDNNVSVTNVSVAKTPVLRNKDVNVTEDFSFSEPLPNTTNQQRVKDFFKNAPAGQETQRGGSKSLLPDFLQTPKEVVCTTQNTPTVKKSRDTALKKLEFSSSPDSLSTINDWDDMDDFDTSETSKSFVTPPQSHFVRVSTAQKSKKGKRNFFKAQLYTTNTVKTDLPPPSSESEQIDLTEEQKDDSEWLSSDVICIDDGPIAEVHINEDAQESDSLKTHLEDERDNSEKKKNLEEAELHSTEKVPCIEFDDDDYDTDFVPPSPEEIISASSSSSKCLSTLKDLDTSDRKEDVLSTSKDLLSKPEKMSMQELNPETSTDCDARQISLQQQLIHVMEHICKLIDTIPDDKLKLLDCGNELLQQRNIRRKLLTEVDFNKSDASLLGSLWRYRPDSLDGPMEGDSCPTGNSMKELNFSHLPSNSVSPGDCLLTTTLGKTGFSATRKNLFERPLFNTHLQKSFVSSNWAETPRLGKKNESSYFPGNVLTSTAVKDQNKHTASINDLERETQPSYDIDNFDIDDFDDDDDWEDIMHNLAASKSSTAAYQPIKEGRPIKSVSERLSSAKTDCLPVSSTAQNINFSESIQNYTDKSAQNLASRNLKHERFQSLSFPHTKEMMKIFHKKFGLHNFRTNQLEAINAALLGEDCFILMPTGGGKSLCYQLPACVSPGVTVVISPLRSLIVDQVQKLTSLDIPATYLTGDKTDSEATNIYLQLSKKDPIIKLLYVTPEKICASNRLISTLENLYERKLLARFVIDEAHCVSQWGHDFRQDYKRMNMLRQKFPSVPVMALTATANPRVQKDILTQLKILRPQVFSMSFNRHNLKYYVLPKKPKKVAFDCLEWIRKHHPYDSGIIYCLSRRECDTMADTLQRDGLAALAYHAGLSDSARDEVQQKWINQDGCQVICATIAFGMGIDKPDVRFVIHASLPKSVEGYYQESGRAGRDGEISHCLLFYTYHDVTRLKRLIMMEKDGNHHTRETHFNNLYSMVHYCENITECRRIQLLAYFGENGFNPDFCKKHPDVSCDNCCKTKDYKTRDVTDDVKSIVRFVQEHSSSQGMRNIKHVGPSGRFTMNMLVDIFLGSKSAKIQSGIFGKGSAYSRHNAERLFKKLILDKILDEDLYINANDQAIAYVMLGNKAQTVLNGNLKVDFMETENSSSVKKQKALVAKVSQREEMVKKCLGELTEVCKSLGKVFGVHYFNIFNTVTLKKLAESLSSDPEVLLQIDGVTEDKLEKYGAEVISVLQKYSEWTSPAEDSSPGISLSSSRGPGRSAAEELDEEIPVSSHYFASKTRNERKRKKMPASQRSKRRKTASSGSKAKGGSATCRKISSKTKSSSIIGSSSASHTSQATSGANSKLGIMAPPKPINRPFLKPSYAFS

Assays:
Flag-DBC1 [1] = biological target: Flag-DBC1 (UniProt Q8N163); test: co-IP; Flag-DBC1 immunoprecipitated, BLM blotted; cells treated with etoposide (100 μM), ML216 (50 μM) or both for 24 h
full-length DBC1 = full-length DBC1 (UniProt Q8N163); test: co-IP; co-IP of full-length or truncated DBC1 with BLM from whole cell lysates, Western blot
DBC1 ΔNudix = DBC1 ΔNudix (UniProt Q8N163); test: as above
[2] = biological target: Deleted in Breast Cancer 1 (DBC1) (UniProt Q8N163); test: co-IP; reciprocal immunoprecipitation of DBC1 and BLM from whole cell lysates, overnight, beads washed with Triton X-100 lysis buffer, Western blot
Flag-DBC1 [3] = biological target: Flag-DBC1 (UniProt Q8N163); test: co-IP; in vitro IP: four equal aliquots of lysate of 293T cells transfected with pMSCV-Flag-DBC1, incubated with anti-FLAG M2 affinity gel and 0, 20, 50 or 100 μM ML216 for 12 h, Western blot for BLM

Measured: binding

BLM (Bloom syndrome protein) (from UniProt P54132 1-1417)
binds: all assays above
